# The campaign covered roughly 330,000 compounds. About 1,000 (0.3%) were called active. This list was built around the results that the source calls inconclusive (neither active nor inactive); the mix of calls is not that of the screen. Calls follow the shape of the dose curve; as a rule, active = well fitted inhibition curve with a large enough effect; inconclusive = small, poorly fitted or top-dose-only effect; inactive = no such curve, though single readings can be large or run the other way; tested in mouse RAW 264.7 cells. Potencies of inconclusive entries are doubtful fits and often do not repeat.
# Experiment: qHTS for Inhibitors of Cell Surface uPA Generation; also: nearly all actives have a fitted effect of over 55% in size
# Settings: cell surface uPA generation assay; series mostly up to 38.3 µM
# In short: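 Using RAW 264.7 macrophages, the screen measures whether compounds keep cellular ATP up by preventing uPA-driven LF translocation. Treatment lasted 24 h at 37 C, with a final top concentration of 38.3 uM, and luminescence was the readout.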
# Potency is read from the fitted curve at half-maximal effect.
row,Compound,Potency
1,O=C(OCc1cc([N+](=O)[O-])cc2c1OCOC2)c1ccc2ccccc2n1,inactive
2,C=CCC[C@@H](Cc1ccc(F)cc1)C(=O)OC[C@@H](NC(=O)[C@@H](CC=C)CC(=O)N[C@@H](CO)Cc1ccccc1)C(C)(C)C,"inconclusive: 28.2 µM [inhibitor, single point]"
3,COc1ccc(C2=NNC(=Nc3cc(S(=O)(=O)N(C)C)ccc3C)SC2)c(OC)c1,"inconclusive: 28.2 µM [inhibitor, single point]"
4,Cc1ccc(-c2cc(=O)c3ccc(F)cc3[nH]2)cc1,"inconclusive: 1.26 µM [inhibitor, full curve]"
5,COc1ccc(Nc2nc3ccccc3s2)cc1,inactive
6,CCOc1ccc(C2C(C(=O)c3ccc(C)o3)=C(O)C(=O)N2c2nc(C)c(C(=O)OC)s2)cc1 (stereo not given),"inconclusive: 12.6 µM [inhibitor, single point]"
7,Cc1nc(SCc2cccc(Oc3ccccc3)c2)n[nH]1,inactive
8,COc1cc(Br)c(Br)cc1N,inactive
9,O=c1cc(-c2ccccc2)oc2ccc(O)cc12,"inconclusive: 10 µM [inhibitor, partial curve, poor fit]"
10,COc1ccc(C2/C=C\CN(CC(C)(C)C)CC(=O)N2Cc2ccc(F)cc2)cc1 (stereo not given),"inconclusive: 28.2 µM [inhibitor, single point]"
11,CC(C)Oc1ccc(CCN=C(N)N=C(N)N)cc1Cl,inactive
12,CN(C)C(=S)Nc1cccc(C(F)(F)F)c1,inactive
13,COc1cccc(-c2c(-c3cc(OC)cc(OC)c3)n(C)c3ccc(-c4cccc5[nH]ccc45)cc23)c1,inactive
14,C[C@@H]1CC=C[C@H]2[C@H]1C(=O)N(Cc1ccccc1)[C@H]2c1ccoc1,"inconclusive: 8.91 µM [inhibitor, partial curve, poor fit]"
15,CCN(CC)CCCN(C(=O)c1ccco1)c1nc(-c2ccc(C)cc2)cs1,inactive
16,COc1ccccc1C(CC(=O)Nc1ccccc1C)c1ccc(OC(C)C)cc1 (stereo not given),"inconclusive: 7.94 µM [inhibitor, single point]"
17,CN(C(=O)c1cccc(NC(=O)Cc2ccc([N+](=O)[O-])cc2)c1)C1CCCCC1,"inconclusive: 8.91 µM [inhibitor, single point]"
18,CC(/C=N/NC(=O)c1cc(C(C)C)[nH]n1)=C\c1ccccc1,"inconclusive: 12.6 µM [inhibitor, single point]"
19,CCc1ccc(N=C2NC(=O)/C(=C/c3ccc(OCC(=O)O)cc3)S2)cc1,"inconclusive: 10 µM [inhibitor, single point]"
20,CNC(C)C(=O)NC(C(=O)N1CCCC1C(=O)NNc1ccccc1)C(C)C (stereo not given),"inconclusive: 12.6 µM [inhibitor, single point]"
21,Cc1sc(-n2c(C)cc(/C=C3\SC(=S)NC3=O)c2C)c(C#N)c1C,inactive
22,CCc1ccc(Oc2coc3cc(O)ccc3c2=O)cc1,"inconclusive: 3.16 µM [inhibitor, partial curve, poor fit]"
23,CC(=O)N(C)c1ccc(NC(=O)Nc2cccc3ccccc23)cc1,"inconclusive: 4.47 µM [inhibitor, partial curve, poor fit]"
24,CCCOc1cccc(-c2nn(-c3ccccc3)cc2/C=C(\C#N)C(=O)NCCCn2ccnc2)c1,"inconclusive: 5.01 µM [inhibitor, single point]"

# Rewritten with tabs: part of the list above
row	Compound	Potency
4	Cc1ccc(-c2cc(=O)c3ccc(F)cc3[nH]2)cc1	inconclusive: 1.26 µM [inhibitor, full curve]
5	COc1ccc(Nc2nc3ccccc3s2)cc1	inactive
6	CCOc1ccc(C2C(C(=O)c3ccc(C)o3)=C(O)C(=O)N2c2nc(C)c(C(=O)OC)s2)cc1 (stereo not given)	inconclusive: 12.6 µM [inhibitor, single point]
7	Cc1nc(SCc2cccc(Oc3ccccc3)c2)n[nH]1	inactive

# Continued.

row,Compound,Potency
1,CCN(CC)c1nc(N)nc(NS(=O)(=O)c2ccc(Cl)cc2)n1,inactive
2,CCc1ccc(N2C(=O)CN(Cc3cc(OC)c(OC)c(OC)c3)C2=S)cc1,inactive
3,Cc1ccc(C)c(N2CCN(C(=O)c3ccc4c(=O)n5c(nc4c3)CCCCC5)CC2)c1,"inconclusive: 22.4 µM [inhibitor, partial curve, poor fit]"
4,Cc1ccc(NC(=O)c2nc[nH]c2C(=O)NCc2ccccc2)cc1,inactive
5,CCCCCCCC#Cc1ccccc1/C=N/S(=O)c1ccc(C)cc1 (stereo not given),"inconclusive: 7.94 µM [inhibitor, single point]"
6,CC(CCc1ccc(O)cc1)NCCc1ccc(O)c(O)c1 (stereo not given),active: 7.94 µM
7,Nc1ccccc1SC1CC(=O)N(c2ccc3c(c2)OCO3)C1=O (stereo not given),inactive
8,Cc1nc2cc(NC(=O)c3ccco3)ccc2n1C,"inconclusive: 12.6 µM [inhibitor, single point]"
9,O=C(CN1CCN(S(=O)(=O)c2cc(Cl)ccc2Cl)CC1)c1ccc(O)c(O)c1,"inconclusive: 1 µM [inhibitor, full curve, poor fit]"
10,CCCCOC(=O)c1ccc(NC(=O)C(=O)NCCN(C)C)cc1,inactive
11,CC(C)C1C(C#N)=C(N)Oc2n[nH]c(-c3ccc4ccccc4c3)c21 (stereo not given),"inconclusive: 2.82 µM [inhibitor, partial curve, poor fit]"
12,O=C(Cc1ccccc1)NCC(=O)Nc1cccc(Cl)c1,inactive
13,COc1ccc(/C=C/c2nc(S(=O)(=O)c3ccccc3)c(N(C)C)o2)cc1OC,"inconclusive: 12.6 µM [inhibitor, single point]"
14,Cc1cccc(Nc2nnc(SCC(=O)NC(=O)CN3CCCC3=O)s2)c1,"inconclusive: 3.55 µM [inhibitor, full curve, poor fit]"
15,CCCCn1c(NCc2ccc(N(C)C)cc2)nc2ccccc21,"inconclusive: 31.6 µM [inhibitor, partial curve, poor fit]"
16,Cc1cccc(CNC(=O)C2CCC(=O)N(C3CCCCCC3)C2)c1 (stereo not given),inactive
17,NS(=O)(=O)c1ccc(-c2ccc(/C=C3\SC(=S)N(C4CCS(=O)(=O)C4)C3=O)o2)cc1 (stereo not given),"inconclusive: 10 µM [inhibitor, partial curve, poor fit]"
18,Clc1cccc(CSc2ccc(-c3ccco3)nn2)c1,inactive
19,COc1cc(/C=N/Nc2ccc(C(F)(F)F)cn2)ccc1O,"inconclusive: 10 µM [inhibitor, partial curve, poor fit]"
20,CS(=O)(=O)N1CCC(Oc2ccccc2C(=O)NCCCc2cccnc2)CC1,inactive
21,CC(OC(=O)c1ccc2ccccc2c1)C(=O)N(C)Cc1ccccc1 (stereo not given),"inconclusive: 12.6 µM [inhibitor, single point]"
22,COc1cccc(C(=O)NCCCn2ccnc2)c1,"inconclusive: 8.91 µM [inhibitor, single point]"
23,CC(=O)c1cccc(NC(=O)COC(=O)c2ccc(S(C)(=O)=O)c([N+](=O)[O-])c2)c1,"inconclusive: 14.1 µM [inhibitor, single point]"
24,O=C(N/N=C/c1ccc(OCc2ccc(F)cc2)cc1)c1ccccc1,"inconclusive: 14.1 µM [inhibitor, partial curve, poor fit]"

row,Compound,Potency
1,CCn1nc(C)cc1C(=O)NC1CCCc2c1cnn2-c1ccc(C)c(C)c1 (stereo not given),"inconclusive: 7.94 µM [inhibitor, partial curve, poor fit]"
2,CCC(C)c1ccc(NC(=O)C2=CC=CN3CCS(=O)(=O)N=C23)cc1 (stereo not given),"inconclusive: 5.01 µM [inhibitor, partial curve, poor fit]"
3,Cc1ccc(C(=O)O/N=C(\N)c2ccccn2)cc1Cl,active: 8.91 µM
4,O=C(CN1C(=O)/C(=C2\SC(=S)N(C3CCS(=O)(=O)C3)C2=O)c2ccccc21)Nc1ccccc1 (stereo not given),inactive
5,O=C(CNc1cccc(S(=O)(=O)N2CCCCCC2)c1)Nc1cccc([N+](=O)[O-])c1,"inconclusive: 31.6 µM [inhibitor, partial curve, poor fit]"
6,O=C(Nc1cccc(Br)c1)c1ccc(CN2CCc3ccccc3C2)cc1,inactive
7,Cc1ccc2nc(NC(=O)CN3C(=O)C4CC=CCC4C3=O)sc2c1 (stereo not given),inactive
8,O=C(O)/C=C/C(=O)c1ccc2c(c1)CCc1ccccc1-2,active: 5.01 µM
9,CCOCCCn1c(=N)c(C(N)=S)cc2c(=O)n3cccc(C)c3nc21,inactive
10,O=C(CSc1nnc(-c2ccncc2)o1)Nc1cccc(Cl)c1,"inconclusive: 3.16 µM [inhibitor, partial curve, poor fit]"
11,O=C(CCN1C(=O)/C(=C/c2ccccc2)SC1=S)NCCc1ccc(O)cc1,"inconclusive: 5.01 µM [inhibitor, partial curve, poor fit]"
12,COc1ccc(S(=O)(=O)N(C(C)=O)c2ccc(OC(C)=O)c3ccccc23)cc1[N+](=O)[O-],"inconclusive: 8.91 µM [inhibitor, partial curve, poor fit]"
13,Cc1ccc2c(c1)[C@H]1[C@H](CO2)[C@H](c2ccccc2)[C@]2(C)C(=O)Nc3cc(Cl)ccc3C(=O)N12,"inconclusive: 12.6 µM [inhibitor, single point]"
14,CCOC(=O)Cn1cncc1-c1ccc([N+](=O)[O-])cc1,inactive
15,OCC1(CCOc2ccccc2)CCN(Cc2cn[nH]c2-c2ccc(F)cc2)CC1,inactive
16,O=C(N/N=C/c1ccc([N+](=O)[O-])cc1)c1cc(C2CC2)nc2ccccc12,"inconclusive: 10 µM [inhibitor, partial curve, poor fit]"
17,O=C(Nc1ccc2ccccc2n1)c1ccccc1,"inconclusive: 8.91 µM [inhibitor, single point]"
18,CCOC(=O)c1c(NC(=O)/C=C/C(=O)O)sc(C)c1-c1ccc(Cl)cc1,active: 8.91 µM
19,CC(C)N(CCC(=O)c1ccc2ccccc2c1)Cc1ccccc1,active: 3.16 µM
20,CCCCCC(=O)Nc1ccc(N2CCOCC2)c(S(=O)(=O)Nc2ccc(OC)cc2)c1,inactive
21,CNC(C)C#Cc1ccc2sc3cccc(OC)c3c(=O)c2c1 (stereo not given),"inconclusive: 15.8 µM [inhibitor, single point]"
22,COC(=O)/C=C/C1=CN(Cc2ccccc2)CCC1=O,inactive

# — PubChem BioAssay AID540303 (National Center for Advancing Translational Sciences (NCATS), 2011)
